Here are results for two molecules from patent US20230357414A1 (SYNTHEKINE, published 2023).

No constants are given. Whether binding was seen depends on the method and setting. Some binding calls cover weakened binding; strength is not graded here.

The assay addresses T1, extracellular domain of human IL12Rb2 (amino acids 24-622 of hIL12Rb2, UniProt Q99665) (human, UniProt Q99665 24-622).
T1 construct: also called hIL12Rb2 ECD; hIL12Rb2-ECD
T1 sequence: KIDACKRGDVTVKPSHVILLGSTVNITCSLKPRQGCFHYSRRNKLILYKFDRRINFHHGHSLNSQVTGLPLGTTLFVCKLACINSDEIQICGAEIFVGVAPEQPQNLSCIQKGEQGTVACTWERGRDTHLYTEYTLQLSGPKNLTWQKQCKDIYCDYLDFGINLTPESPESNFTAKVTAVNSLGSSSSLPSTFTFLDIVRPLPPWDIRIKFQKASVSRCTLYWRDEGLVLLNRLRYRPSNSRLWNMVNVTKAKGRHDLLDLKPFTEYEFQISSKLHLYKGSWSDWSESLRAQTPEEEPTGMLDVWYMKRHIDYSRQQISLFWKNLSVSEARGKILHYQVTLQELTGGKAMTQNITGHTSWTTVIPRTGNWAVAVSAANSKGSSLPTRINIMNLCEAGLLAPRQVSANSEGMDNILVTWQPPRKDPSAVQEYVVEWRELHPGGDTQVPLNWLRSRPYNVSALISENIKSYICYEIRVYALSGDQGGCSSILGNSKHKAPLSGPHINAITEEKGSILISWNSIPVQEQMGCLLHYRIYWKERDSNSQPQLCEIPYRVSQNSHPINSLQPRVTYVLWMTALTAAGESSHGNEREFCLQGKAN
In words: periplasmic extract ELISA on antigen-coated plate; positive if A450 at least threefold over PBS-coated control. How it is done:
Upon completion of the biopanning of Example 3, three 96-well plates of individual phage clones were isolated in order to perform periplasmic extract ELISA (PE-ELISA) on IL12Rb2 coated plates to identify positive VHH binders that selectively bound IL12Rb2. A 96-well plate was coated with IL12Rb2 and PBS under the same conditions. Next, wells were blocked at 37° C. for 1 h. Then, 100 μl of extracted antibodies was added to each well and incubated for 1 h. Subsequently, 100 μl of anti-tag polyclonal antibody conjugated to HRP was added to each well and incubated at 37° C. for 1 h. Plates were developed with TMB substrate. The reaction was stopped by the addition of H2SO4. Absorbance at 450 nm was read on a microtiter plate reader. Antibodies with absorbance of the antigen-coated well at least threefold greater than PBS-coated control are VHHs that specifically bind to IL 12Rb2. Positive clones were sequenced, and sequences analyzed to identify unique clonotypes

B1: VHH15 (VHH, not shown: large carriers)
VHH: QVQLQESGGGSVQAGGSLRLSCAASGFTISRYCMGWLRQAPGKQREGVAIIERDGRTGYADSVKGRFTISKDNAKNTLYLQMNSLKPEDTAMYYCGAIEGSCRPDLGYRGQGTQVTVSS
In the case of B1, the binding entry is given as “binds”.

B2: VHH18 (VHH, not shown: large carriers)
VHH: QVQLQESGGGSVQAGGSLRLSCSASGFTVDDFAMGWYRQAPGNECELVSTISSGGSTYYADSVKGRFTISQDSAKNTVYLQMNSLKPEDTAVYYCAPSSVGCPLGYWGQGTQVTVSS
Take B2: the binding result is “binds”.
